{"source": "the supplement of paper PMC9763283", "assay_in_all_cases": "area under growth-rate inhibition curve (AUC GRI) (dimensionless (GR-based AUC)); higher = less growth inhibition", "settings_in_all_cases": "exposure time: 72 h; concentrations: 0.1, 1, 10 uM", "key": {"BT474-P": {"system": "BT474-P", "summary_of_the_method": "(§1)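 Nuclear counts from Hoechst 33342- or DAPI-stained images were used to estimate the area under the growth-rate inhibition curve, with growth corrected by reference to untreated and DMSO-treated plates and starting plates. The six breast cancer cell line models, comprising two triple-negative lines and parental and drug-combination-resistant HER2+ lines, were treated with compound at 0.1, 1 or 10 µM for 72 h. Data came from 2 biological replicates, using Day 0 and Day 3 plates.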"}, "BT474-LTR": {"system": "BT474-LTR", "summary_of_the_method": "as §1"}, "MDA-MB-231": {"system": "MDA-MB-231", "summary_of_the_method": "as §1"}, "MDA-MB-468": {"system": "MDA-MB-468", "summary_of_the_method": "as §1"}, "SKBR3-P": {"system": "SKBR3-P", "summary_of_the_method": "as §1"}, "SKBR3-LTR": {"system": "SKBR3-LTR", "summary_of_the_method": "as §1"}}}
{"smiles": "CN1C2CCC1CC(OC(=O)C(O)c1ccccc1)C2.[Br-].[H+]", "note": "(stereo unspecified) [Homatropine Bromide]", "values": [{"measurement": "area under growth-rate inhibition curve", "setting": "BT474-P", "value": 1.02}, {"measurement": "area under growth-rate inhibition curve", "setting": "BT474-LTR", "value": 1.11}, {"measurement": "area under growth-rate inhibition curve", "setting": "MDA-MB-231", "value": 1.03}, {"measurement": "area under growth-rate inhibition curve", "setting": "MDA-MB-468", "value": 1.04}, {"measurement": "area under growth-rate inhibition curve", "setting": "SKBR3-P", "value": 1.04}, {"measurement": "area under growth-rate inhibition curve", "setting": "SKBR3-LTR", "value": 1.08}]}
